# PubChem BioAssay AID445 (National Center for Advancing Translational Sciences (NCATS), 2006)
# This is one part of the list. These are further read-outs of the screen, such as a control signal, another cell line or another target. No call is given for them. The list favours compounds with an active or inconclusive main result. Words in brackets tell the shape of the fitted curve; partial curves, single points and poor fits give uncertain potencies.
# Test: IkB Signaling
# Settings: ABC-DLBCL IkBa-CBG/CBR dual luciferase ratio (green luciferase fused to IkBa over red control in OCI-Ly3 lymphoma cells), 4 h
# In short: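 Luminescence ratio of IκBα-fused green versus native red beetle luciferase in OCI-Ly3 cells, 4 h post-doxycycline with compound; red signal alone, scaled from basal (0%) to zero light (-100%), flagged nonspecific or cytotoxic effects.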
# [1] = measured here: control luc red channel unless noted
structure (smiles),measurement,setting,value
CCCOc1cccc(C(=O)Nc2cc(-c3ccccc3)no2)c1,AC50,[1],"3.98 µM [falling, partial curve]"
Cc1ccc(C)c(N2CCN(C(=O)CSCc3ccccc3Cl)CC2)c1,AC50,[1],"5.01 µM [falling, partial curve]"
COc1cccc(NC(=O)CC2Nc3cc(C)c(C)cc3NC2=O)c1 (centres undefined),AC50,[1],"12.6 µM [falling, partial curve]"
CCc1nn2cc(-c3ccccc3)nc2s1,AC50,[1],"7.94 µM [falling, partial curve]"
CCn1c2ccccc2c2nnc(SCCCn3c(=O)[nH]c4ccccc43)nc21,AC50,[1],"2.51 µM [falling, full curve]"
CCc1ccc(S(=O)(=O)Nc2cccc(-c3ccc(N4CCOCC4)nn3)c2)cc1,AC50,[1],"31.6 µM [falling, single point]"
CCOc1ccc(NS(=O)(=O)c2ccc3c4c(cccc24)C(=O)N3)cc1,AC50,[1],"25.1 µM [falling, partial curve]"
O=C(Nc1cccc(F)c1)c1ccc2c(c1)N(Cc1ccccc1)C(=O)c1ccccc1S2(=O)=O,AC50,[1],"15.8 µM [falling, partial curve]"
COc1ccc(C(=O)NCC(c2ccc(N(C)C)cc2)N2CCc3ccccc32)cc1OC (centres undefined),AC50,[1],"31.6 µM [falling, single point]"
COC(=O)c1ccccc1NC(=O)C1CCN(C(=O)N2CC(C)Oc3ccccc32)CC1 (centres undefined),AC50,[1],"2.51 µM [rising, partial curve]"
COc1ccc(-c2nc3ccccc3s2)cc1NC(=O)c1ccc(F)cc1,AC50,[1],"0.1 µM [rising, full curve, poor fit]"
Cc1ccc(OCC(=O)Nc2ccccc2OCc2cc(=O)n3ccccc3n2)cc1C,AC50,[1],"2 µM [falling, partial curve]"
CCC1Oc2ccc(Cl)cc2N(CC(=O)NCCc2ccc(Cl)cc2)C1=O (centres undefined),AC50,[1],"2.51 µM [falling, partial curve]"
COCCNc1nc(NCc2cccc(Cl)c2)c2cnn(C)c2n1,AC50,[1],"20 µM [falling, single point]"
CCCCCCCCCCCCCCCC[n+]1ccccc1,AC50,[1],"15.8 µM [falling, full curve, poor fit]"
N#C/C(=C\Nc1ccc2c(c1)OCCO2)c1nc2ccccc2[nH]1,AC50,[1],"12.6 µM [falling, partial curve]"
O=[N+]([O-])c1cc(-c2nc(-c3ccccc3)no2)ccc1NC1CCCCC1,AC50,[1],"25.1 µM [falling, partial curve]"
C=Cc1ccc(Cn2c(C)c(CNCc3ccccc3C)c(C(=O)O)c2C)cc1,AC50,[1],"31.6 µM [falling, partial curve]"
O=C(NC1CCCCCC1)c1cc(S(=O)(=O)N2CCOCC2)ccc1N1CCCCC1,AC50,[1],"25.1 µM [falling, partial curve]"
COc1ccc(C2c3cc(OC)c(OC)cc3CC(=O)N2c2ccc(C)c(F)c2)cc1 (centres undefined),AC50,[1],"20 µM [falling, partial curve]"
COc1ccc(CCNC(=O)c2c(C)oc3ncn(C)c(=O)c23)c(OC)c1,AC50,[1],"1 µM [rising, partial curve]"
CC(=O)Nc1ccc(N(C(=O)Cn2nnc3ccccc32)C(C(=O)NCc2ccccc2)c2ccc(C)cc2)cc1 (centres undefined),AC50,[1],"10 µM [falling, partial curve]"
CCc1c(C)nc2[nH]nc(-c3ccccc3)n2c1=O,AC50,[1],"5.01 µM [falling, partial curve]"
CCOC(=O)C(Cc1c[nH]c2ccccc12)NC(=O)COc1ccc(CC)cc1 (centres undefined),AC50,[1],"31.6 µM [falling, single point]"
Cc1cccc(S(=O)(=O)c2c(N)n(Cc3ccco3)c3nc4ccccc4nc23)c1,AC50,[1],"15.8 µM [falling, partial curve]"
COc1ccc(C)cc1N(C)C(=O)CCc1nc(-c2ccccc2F)no1,AC50,[1],"6.31 µM [falling, single point]"
CN(C)c1ccc(Nc2ncnc3sc4c(c23)CCCC4)cc1,AC50,[1],"6.31 µM [rising, single point]"
Cc1nnsc1NC(=O)OCC(C)C,AC50,[1],"6.31 µM [falling, partial curve]"
COc1ccc(C)cc1NC(=O)Nc1cccc(-c2noc(C)n2)c1,AC50,[1],"39.8 µM [falling, single point]"
COc1ccccc1CCNC(=O)C(C)Sc1nc(-c2ccccc2)cc(C(F)(F)F)n1 (centres undefined),AC50,[1],"20 µM [falling, single point]"
Cc1ccc(C)c(N2CCN(C(=O)CCCOc3cc(=O)n(C)c4ccccc34)CC2)c1,AC50,[1],"15.8 µM [falling, partial curve]"
CCCOc1ccc(CNC(=O)c2[nH]c3cc(OC)ccc3c2Sc2ccccc2)cc1,AC50,[1],"12.6 µM [falling, partial curve]"
Cc1ccc(/C=C/C(=O)Nc2ccccc2C(N)=O)o1,AC50,[1],"10 µM [falling, partial curve]"
CCCCOc1ccc(S(=O)(=O)n2c(C)nc3ccccc32)cc1,AC50,[1],"12.6 µM [falling, partial curve]"
COc1ccccc1NC(=O)COc1ccc(-c2nn(C)c(=O)c3ccccc23)cc1,AC50,[1],"20 µM [falling, partial curve]"
Cc1ccc2oc(=O)n(Cc3ccccc3OC(C)C)c2c1,AC50,[1],"39.8 µM [falling, single point]"
COc1cc(OC)cc(-c2nc3n(n2)C(c2ccccc2)C(C(N)=O)=C(C)N3)c1 (centres undefined),AC50,[1],"39.8 µM [falling, single point]"
Cc1sc(-c2cc3c([nH]c2=O)CC(c2ccccc2)CC3=O)nc1-c1ccc(Cl)cc1 (centres undefined),AC50,measured here: IkB-luc green channel,"3.98 µM [rising, full curve, poor fit]"
same,AC50,measured here: control luc red channel,"0.126 µM [rising, full curve, poor fit]"
Cc1c(C(=O)N2CCOCC2)oc2c1-c1nn(CC(=O)NCc3cccc(Cl)c3)cc1CC2,AC50,[1],"15.8 µM [falling, single point]"
CCCCS(=O)(=O)c1oc(-c2ccc(F)cc2)nc1S(=O)(=O)c1ccc(C)cc1,AC50,[1],"3.98 µM [falling, full curve]"
O=C(NCc1cccc(F)c1)c1ccc(NC(=O)c2nsc3ccccc23)cc1,AC50,[1],"0.316 µM [falling, full curve]"
CC(C)(C)OC(=O)N1CCC(c2c(C(=O)NCCc3ccccc3)cnn2-c2ccc(F)cc2F)CC1,AC50,[1],"20 µM [falling, partial curve]"
Cn1c(=O)oc2cc(S(=O)(=O)N3CCC(C(=O)N4CCN(c5ccccc5F)CC4)CC3)ccc21,AC50,[1],"20 µM [falling, single point]"
COc1cccc(N2CCN(S(=O)(=O)c3cc(-c4cc(C)no4)ccc3C)CC2)c1,AC50,[1],"3.16 µM [falling, full curve]"
O=c1c2cn[nH]c2nc(SCc2c(F)cccc2F)n1-c1ccc(Cl)cc1,AC50,[1],"39.8 µM [falling, partial curve]"
CCCCN(CC)CCCNC(=O)Cn1ncc2c([nH]c3ccc(C)cc32)c1=O,AC50,[1],"39.8 µM [falling, single point]"
O=C(c1ccco1)N1CCN(C(=O)C(Sc2ccccc2)c2ccccc2)CC1 (centres undefined),AC50,[1],"25.1 µM [falling, partial curve]"
COc1ccc(N(CC(=O)N2CCN(c3ccc(F)cc3)CC2)S(=O)(=O)c2c(C)noc2C)cc1,AC50,[1],"10 µM [falling, partial curve]"
O=C(NCc1ccco1)c1ccc2c(c1)N(Cc1ccc(F)cc1)C(=O)c1ccccc1S2(=O)=O,AC50,[1],"15.8 µM [falling, single point]"
CC(C)(C)c1cc(C(F)(F)F)nc(SCCCNC(=O)c2ccco2)n1,AC50,[1],"31.6 µM [falling, single point]"
Cc1cc(-c2ccccc2)nc(N2CCN(c3ccccn3)CC2)n1,AC50,[1],"31.6 µM [falling, partial curve]"
Cc1cc(C)cc(OCC(=O)N2CCC(c3nc4ccccc4s3)CC2)c1,AC50,[1],"6.31 µM [falling, partial curve]"
CCCN1C(=O)C(Cc2nc3ccccc3c(=O)n2-c2ccc(OC)cc2)c2cc(C)ccc21 (centres undefined),AC50,[1],"39.8 µM [falling, single point]"
NC(=O)CSc1nc2ccc(NC(=O)COc3ccccc3Cl)cc2s1,AC50,[1],"0.501 µM [falling, full curve]"
Cc1cccc(-n2nc(C)c(C(=O)N3CCN(c4ccccc4)CC3)c2-n2cccc2)c1,AC50,[1],"25.1 µM [falling, partial curve]"
Cc1ccc(C)c(N2CCN(C(=O)C(CC(C)C)NS(=O)(=O)c3ccc4nc(C)sc4c3)CC2)c1 (centres undefined),AC50,[1],"15.8 µM [falling, partial curve]"
CCOc1ccc(-c2cc(C(=O)NCCc3ccc(OC)c(OC)c3)c3c(-c4ccc(F)cc4)[nH]nc3n2)cc1,AC50,[1],"2.51 µM [rising, partial curve]"
CCOC(=O)c1cnc2c(C)cccc2c1Nc1ccc(OC(C)C)cc1,AC50,[1],"3.98 µM [falling, partial curve]"
Cc1cccc(OCCCn2c(CCNC(=O)C3CCCCC3)nc3ccccc32)c1,AC50,[1],"15.8 µM [falling, partial curve]"
COc1ccccc1CN(Cc1c(Cl)cccc1Cl)S(=O)(=O)c1ccc(Br)cc1,AC50,[1],"12.6 µM [falling, partial curve]"
CSc1ccc(CCNC(=O)c2cc3cc4cc(C)ccc4nc3s2)cc1,AC50,[1],"31.6 µM [rising, partial curve, poor fit]"
CCN1C=C(Cc2cccs2)C2=C(C1)C(c1cccs1)C(C#N)=C(N)O2 (centres undefined),AC50,[1],"10 µM [falling, partial curve]"

# No new results follow: entries from further up.
structure (smiles),measurement,setting,value
CCCCOc1ccc(S(=O)(=O)n2c(C)nc3ccccc32)cc1,AC50,[1],"12.6 µM [falling, partial curve]"
COc1ccccc1NC(=O)COc1ccc(-c2nn(C)c(=O)c3ccccc23)cc1,AC50,[1],"20 µM [falling, partial curve]"

# A different layout for some results above:
structure (smiles) | measurement | setting | value
O=c1c2cn[nH]c2nc(SCc2c(F)cccc2F)n1-c1ccc(Cl)cc1 | AC50 | [1] | 39.8 µM [falling, partial curve]
CCCCN(CC)CCCNC(=O)Cn1ncc2c([nH]c3ccc(C)cc32)c1=O | AC50 | [1] | 39.8 µM [falling, single point]
